These are literature values, as cited in US7858634B2, “Amorphous 3-pyridil-1-hydroxyethyliden-1,1-biphosphonic acid monosodium salt and process for the preparation thereof” (Chemi SpA, priority 2004, dated 2010).

For the data set the following is noted: amorphous form; as described in WO03/033508; cited from earlier work.

For the molecule `NCCCC(O)(P(=O)(O)O)P(=O)(O)O` [sodium alendronate], the “dissolution rate in water with respect to crystalline forms” value was “more rapidly dissolved in water”.
